Experimental findings from the supplement of paper PMC12819154, “High-throughput peptide-centric local stability assay extends protein–ligand identification to membrane proteins, tissues and bacteria” (Nature Structural & Molecular Biology, 2025) are described below.

Sequences of proteins named here, by UniProt entry; tags and fusion partners are left off. A change or cut given only in a name is not applied to a line headed by its entry.
UniProt Q6ZMY9: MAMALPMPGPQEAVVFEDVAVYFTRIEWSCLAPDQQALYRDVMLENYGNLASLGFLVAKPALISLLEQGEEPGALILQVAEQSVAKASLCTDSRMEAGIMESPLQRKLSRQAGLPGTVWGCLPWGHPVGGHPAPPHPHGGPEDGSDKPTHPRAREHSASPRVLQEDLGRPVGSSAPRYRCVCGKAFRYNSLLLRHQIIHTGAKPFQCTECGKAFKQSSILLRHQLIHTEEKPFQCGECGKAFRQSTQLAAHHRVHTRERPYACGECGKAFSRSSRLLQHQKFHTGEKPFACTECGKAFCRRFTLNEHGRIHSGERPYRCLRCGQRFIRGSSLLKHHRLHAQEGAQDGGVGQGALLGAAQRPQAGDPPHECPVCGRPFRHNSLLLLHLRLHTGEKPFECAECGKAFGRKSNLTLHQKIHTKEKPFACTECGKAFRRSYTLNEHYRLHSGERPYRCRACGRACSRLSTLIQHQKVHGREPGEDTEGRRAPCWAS
UniProt Q86US8: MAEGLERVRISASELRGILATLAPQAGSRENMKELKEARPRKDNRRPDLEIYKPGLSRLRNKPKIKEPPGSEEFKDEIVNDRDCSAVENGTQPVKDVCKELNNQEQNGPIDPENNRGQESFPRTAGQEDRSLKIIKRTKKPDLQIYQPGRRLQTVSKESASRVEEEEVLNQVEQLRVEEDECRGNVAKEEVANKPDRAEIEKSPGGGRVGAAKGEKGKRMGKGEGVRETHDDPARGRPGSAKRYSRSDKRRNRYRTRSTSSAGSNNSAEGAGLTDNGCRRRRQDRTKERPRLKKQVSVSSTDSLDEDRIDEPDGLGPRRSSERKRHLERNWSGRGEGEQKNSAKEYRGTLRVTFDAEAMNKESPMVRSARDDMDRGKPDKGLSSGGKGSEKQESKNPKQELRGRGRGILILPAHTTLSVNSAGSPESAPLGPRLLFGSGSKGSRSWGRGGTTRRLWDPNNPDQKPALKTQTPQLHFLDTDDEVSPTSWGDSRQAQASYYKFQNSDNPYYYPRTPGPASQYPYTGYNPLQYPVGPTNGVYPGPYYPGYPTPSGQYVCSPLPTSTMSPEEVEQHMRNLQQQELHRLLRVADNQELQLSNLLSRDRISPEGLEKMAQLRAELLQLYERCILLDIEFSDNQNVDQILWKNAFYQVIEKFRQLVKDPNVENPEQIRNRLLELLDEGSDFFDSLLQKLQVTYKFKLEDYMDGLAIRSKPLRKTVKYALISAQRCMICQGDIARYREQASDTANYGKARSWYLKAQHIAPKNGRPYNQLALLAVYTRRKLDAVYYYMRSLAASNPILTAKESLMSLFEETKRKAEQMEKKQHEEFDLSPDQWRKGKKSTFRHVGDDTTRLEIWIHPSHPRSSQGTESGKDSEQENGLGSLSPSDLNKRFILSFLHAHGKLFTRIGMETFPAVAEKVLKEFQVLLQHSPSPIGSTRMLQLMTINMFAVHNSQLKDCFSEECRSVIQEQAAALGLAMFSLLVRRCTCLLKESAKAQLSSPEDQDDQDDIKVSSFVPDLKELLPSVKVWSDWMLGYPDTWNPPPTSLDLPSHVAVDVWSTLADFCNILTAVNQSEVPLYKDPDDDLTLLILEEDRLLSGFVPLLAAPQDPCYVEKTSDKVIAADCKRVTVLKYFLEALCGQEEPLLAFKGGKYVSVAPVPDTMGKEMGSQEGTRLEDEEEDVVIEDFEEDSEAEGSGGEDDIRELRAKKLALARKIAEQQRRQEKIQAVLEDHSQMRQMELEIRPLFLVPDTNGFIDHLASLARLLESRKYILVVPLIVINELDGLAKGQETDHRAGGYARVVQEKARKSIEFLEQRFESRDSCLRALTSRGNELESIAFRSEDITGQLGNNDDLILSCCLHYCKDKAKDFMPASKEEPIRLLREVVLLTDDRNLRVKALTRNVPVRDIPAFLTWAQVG
UniProt Q7L3S4: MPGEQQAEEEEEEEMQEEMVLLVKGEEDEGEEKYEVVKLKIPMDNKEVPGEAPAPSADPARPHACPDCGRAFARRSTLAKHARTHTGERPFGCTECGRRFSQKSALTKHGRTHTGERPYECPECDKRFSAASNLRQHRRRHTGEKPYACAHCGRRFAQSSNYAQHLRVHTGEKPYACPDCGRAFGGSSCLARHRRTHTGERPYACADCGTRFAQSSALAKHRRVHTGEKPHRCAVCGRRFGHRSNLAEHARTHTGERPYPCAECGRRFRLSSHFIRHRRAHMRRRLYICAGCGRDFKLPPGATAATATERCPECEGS
UniProt Q71F56: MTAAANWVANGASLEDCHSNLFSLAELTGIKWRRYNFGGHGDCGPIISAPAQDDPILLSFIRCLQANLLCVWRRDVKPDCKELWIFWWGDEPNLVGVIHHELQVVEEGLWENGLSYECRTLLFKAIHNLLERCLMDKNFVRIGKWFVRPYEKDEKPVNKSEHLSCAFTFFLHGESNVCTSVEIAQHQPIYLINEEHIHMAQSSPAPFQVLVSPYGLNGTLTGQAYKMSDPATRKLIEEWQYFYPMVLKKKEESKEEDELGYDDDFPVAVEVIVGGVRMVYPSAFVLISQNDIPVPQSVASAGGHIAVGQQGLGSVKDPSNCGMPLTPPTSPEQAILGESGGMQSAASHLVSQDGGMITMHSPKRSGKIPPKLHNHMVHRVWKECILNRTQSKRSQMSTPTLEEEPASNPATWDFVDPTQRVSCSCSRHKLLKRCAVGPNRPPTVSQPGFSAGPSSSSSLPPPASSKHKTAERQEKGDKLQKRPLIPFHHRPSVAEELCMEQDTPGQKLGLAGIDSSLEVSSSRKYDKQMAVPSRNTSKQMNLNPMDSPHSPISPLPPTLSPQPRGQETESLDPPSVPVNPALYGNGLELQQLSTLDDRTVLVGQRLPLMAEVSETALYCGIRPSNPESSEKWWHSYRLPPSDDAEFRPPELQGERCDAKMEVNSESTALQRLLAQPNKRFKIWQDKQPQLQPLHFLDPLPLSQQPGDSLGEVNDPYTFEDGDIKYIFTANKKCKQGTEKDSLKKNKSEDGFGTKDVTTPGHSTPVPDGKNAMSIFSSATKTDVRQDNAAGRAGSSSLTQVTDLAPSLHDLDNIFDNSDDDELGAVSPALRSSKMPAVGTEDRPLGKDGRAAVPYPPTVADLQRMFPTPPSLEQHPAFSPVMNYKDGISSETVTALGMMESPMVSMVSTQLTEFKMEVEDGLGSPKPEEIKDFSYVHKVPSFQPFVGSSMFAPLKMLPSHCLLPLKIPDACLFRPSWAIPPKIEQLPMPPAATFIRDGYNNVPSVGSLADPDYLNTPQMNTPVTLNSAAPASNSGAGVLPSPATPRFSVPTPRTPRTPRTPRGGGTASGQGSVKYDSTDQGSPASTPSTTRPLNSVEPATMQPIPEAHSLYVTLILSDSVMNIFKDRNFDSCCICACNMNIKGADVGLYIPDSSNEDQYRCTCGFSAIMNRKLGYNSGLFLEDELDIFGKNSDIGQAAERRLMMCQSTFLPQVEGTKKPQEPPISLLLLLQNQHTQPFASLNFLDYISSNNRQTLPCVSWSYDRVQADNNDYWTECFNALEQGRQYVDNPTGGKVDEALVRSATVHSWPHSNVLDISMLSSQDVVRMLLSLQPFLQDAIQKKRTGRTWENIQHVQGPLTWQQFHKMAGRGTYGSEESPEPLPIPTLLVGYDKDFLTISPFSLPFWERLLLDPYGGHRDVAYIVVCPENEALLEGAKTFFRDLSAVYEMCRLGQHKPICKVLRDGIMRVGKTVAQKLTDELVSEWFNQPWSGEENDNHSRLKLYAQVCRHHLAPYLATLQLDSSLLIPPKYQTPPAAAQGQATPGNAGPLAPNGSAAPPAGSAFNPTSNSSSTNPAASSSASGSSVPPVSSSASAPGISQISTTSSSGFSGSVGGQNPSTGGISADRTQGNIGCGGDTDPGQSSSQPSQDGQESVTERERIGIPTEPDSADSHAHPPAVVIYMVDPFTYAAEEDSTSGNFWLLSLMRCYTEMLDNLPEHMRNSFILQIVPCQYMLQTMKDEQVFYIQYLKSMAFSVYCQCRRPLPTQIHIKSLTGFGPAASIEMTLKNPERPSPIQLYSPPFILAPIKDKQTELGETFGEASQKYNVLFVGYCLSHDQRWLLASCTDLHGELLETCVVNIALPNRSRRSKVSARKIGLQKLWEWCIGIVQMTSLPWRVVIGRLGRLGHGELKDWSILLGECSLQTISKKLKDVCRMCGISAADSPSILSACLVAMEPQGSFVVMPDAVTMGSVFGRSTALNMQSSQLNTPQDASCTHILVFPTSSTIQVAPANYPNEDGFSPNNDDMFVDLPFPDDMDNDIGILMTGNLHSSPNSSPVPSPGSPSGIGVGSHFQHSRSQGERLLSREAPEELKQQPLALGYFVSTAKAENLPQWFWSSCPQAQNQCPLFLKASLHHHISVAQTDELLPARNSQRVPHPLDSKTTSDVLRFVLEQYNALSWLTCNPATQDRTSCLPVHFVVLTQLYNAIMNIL
UniProt Q7Z5L9: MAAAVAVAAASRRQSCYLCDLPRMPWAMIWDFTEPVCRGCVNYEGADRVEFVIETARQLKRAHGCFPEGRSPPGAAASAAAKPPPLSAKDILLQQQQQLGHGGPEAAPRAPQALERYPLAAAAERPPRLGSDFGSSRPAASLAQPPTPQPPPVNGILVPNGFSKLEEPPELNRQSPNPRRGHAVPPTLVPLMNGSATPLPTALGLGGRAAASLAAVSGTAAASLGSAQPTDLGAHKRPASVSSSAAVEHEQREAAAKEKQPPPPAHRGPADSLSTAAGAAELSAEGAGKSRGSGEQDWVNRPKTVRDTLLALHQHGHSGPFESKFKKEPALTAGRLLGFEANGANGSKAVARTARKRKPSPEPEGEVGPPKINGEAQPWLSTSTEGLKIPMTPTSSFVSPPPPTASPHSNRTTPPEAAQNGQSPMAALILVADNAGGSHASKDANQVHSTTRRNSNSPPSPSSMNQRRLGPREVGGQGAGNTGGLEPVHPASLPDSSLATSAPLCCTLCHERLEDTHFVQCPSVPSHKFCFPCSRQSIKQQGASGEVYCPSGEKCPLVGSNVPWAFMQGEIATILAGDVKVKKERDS
UniProt Q71SY5: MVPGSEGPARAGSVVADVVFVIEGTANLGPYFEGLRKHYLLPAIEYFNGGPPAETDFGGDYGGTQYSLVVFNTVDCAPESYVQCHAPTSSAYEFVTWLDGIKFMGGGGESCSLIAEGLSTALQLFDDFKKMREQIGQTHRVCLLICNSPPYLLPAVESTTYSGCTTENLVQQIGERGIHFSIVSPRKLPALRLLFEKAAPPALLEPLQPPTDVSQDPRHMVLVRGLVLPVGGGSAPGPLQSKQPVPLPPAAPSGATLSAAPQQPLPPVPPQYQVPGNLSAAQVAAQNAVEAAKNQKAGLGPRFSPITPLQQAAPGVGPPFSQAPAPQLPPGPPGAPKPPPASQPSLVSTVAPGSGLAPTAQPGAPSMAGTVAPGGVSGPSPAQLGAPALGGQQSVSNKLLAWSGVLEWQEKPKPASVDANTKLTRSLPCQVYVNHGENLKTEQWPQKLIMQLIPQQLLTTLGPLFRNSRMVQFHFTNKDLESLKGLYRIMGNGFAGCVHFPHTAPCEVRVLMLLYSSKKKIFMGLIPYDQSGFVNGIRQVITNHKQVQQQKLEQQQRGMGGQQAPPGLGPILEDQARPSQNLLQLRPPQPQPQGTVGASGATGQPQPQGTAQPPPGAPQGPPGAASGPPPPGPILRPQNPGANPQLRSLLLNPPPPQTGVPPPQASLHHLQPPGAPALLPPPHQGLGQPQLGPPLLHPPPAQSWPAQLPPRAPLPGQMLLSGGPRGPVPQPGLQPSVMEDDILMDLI
UniProt Q7L2Z9: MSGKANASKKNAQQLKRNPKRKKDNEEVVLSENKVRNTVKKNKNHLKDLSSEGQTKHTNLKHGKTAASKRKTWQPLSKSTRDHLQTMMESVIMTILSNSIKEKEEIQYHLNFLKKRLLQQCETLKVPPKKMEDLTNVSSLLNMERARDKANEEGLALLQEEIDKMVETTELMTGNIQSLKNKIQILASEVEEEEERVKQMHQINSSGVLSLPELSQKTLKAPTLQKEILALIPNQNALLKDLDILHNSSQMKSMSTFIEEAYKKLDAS
UniProt Q86SX3: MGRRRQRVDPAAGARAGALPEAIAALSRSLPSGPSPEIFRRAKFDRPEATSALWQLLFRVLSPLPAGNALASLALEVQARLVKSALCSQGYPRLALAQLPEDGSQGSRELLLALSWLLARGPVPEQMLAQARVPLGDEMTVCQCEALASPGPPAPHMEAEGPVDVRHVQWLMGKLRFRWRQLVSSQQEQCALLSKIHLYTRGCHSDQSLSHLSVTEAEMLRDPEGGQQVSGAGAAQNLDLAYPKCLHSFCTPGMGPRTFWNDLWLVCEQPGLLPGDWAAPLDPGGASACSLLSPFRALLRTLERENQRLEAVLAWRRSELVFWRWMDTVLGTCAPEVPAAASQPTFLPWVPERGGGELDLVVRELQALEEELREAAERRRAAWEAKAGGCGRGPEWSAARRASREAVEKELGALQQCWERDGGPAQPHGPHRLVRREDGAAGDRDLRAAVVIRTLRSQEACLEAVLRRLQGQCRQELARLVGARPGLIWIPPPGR

This is one part of the list. Small differences around the control level are noise.

Compound in the test: Cc1nc(Nc2ncc(C(=O)Nc3c(C)cccc3Cl)s2)cc(N2CCN(CCO)CC2)n1 [dasatinib]
The test can be described thus: log2 fold change of tryptic peptide abundance, ligand vs vehicle (limited proteolysis) (log2 ratio); higher = more trypsin-susceptible (destabilized). The settings on record: ligand concentration: 5 uM; sample: K562 cleared lysate.
Turning to “MFSD6 (peptide sequence: AQPVPCETHSDPSR, peptide start residue: 738) (UniProt Q6ZSS7)”, the log2 fold change stood at 0.0126.

Turning to “UniProt Q6ZMY9 (peptide sequence: VLQEDLGRPVGSSAPR, peptide start residue: 162)”, the log2 fold change was found to be 0.277.

Consider “ASRGL1 (peptide sequence: AATVGYGILR, peptide start residue: 30) (UniProt Q7L266)”, for which the log2 fold change is -0.0109.

On to “NET1 (peptide sequence: VTSLANLISPVR, peptide start residue: 98) (UniProt Q7Z628)”, for which the log2 fold change is -0.348.

For the target “SMG6 (peptide sequence: KQHEEFDLSPDQWR, peptide start residue: 823) (UniProt Q86US8)”, the log2 fold change is -0.252.

Regarding “FASTKD5 (peptide sequence: DLLGLHNMK, peptide start residue: 713) (UniProt Q7L8L6)”, the log2 fold change is -0.279.

Regarding “UniProt Q7RTV0 (peptide sequence: CVICDSYVRPCTLVR, peptide start residue: 30)”, the log2 fold change is -0.183.

Take “APTX (peptide sequence: ESLGHWSQGLK, peptide start residue: 176) (UniProt Q7Z2E3)”: the log2 fold change was -0.0666.

Consider “ZNF771 (peptide sequence: THTGERPYECPECDKR, peptide start residue: 112) (UniProt Q7L3S4)”, for which the log2 fold change amounted to 0.49.

With “C15orf39 (peptide sequence: AVPQPGAFQR, peptide start residue: 406) (UniProt Q6ZRI6)”, the log2 fold change was -0.558.

In the case of “BCL9L (peptide sequence: YAMPSSTPLYHNAIK, peptide start residue: 1094) (UniProt Q86UU0)”, the log2 fold change is -0.135.

Take “MED13L (peptide sequence: LLAQPNKR, peptide start residue: 672) (UniProt Q71F56)”: the log2 fold change was -0.198.

On to “UniProt Q6ZSB9 (peptide sequence: TLDESHPHASPSVNR, peptide start residue: 169)”, for which the log2 fold change is -0.064.

With “UniProt Q6YP21 (peptide sequence: LGWSIGPNHLIK, peptide start residue: 289)”, the log2 fold change worked out at 0.308.

“UniProt Q7Z7A3 (peptide sequence: RGLDEEATPGTPGDPARPPASK, peptide start residue: 322)”: the log2 fold change was 0.181.

“UniProt Q7Z7B0 (peptide sequence: LREEEEKLK, peptide start residue: 275)”: the log2 fold change was -0.231.

For “UniProt Q86TM3 (peptide sequence: AAIETLIR, peptide start residue: 107)”, the log2 fold change stood at 0.0504.

Take “IRF2BP2 (peptide sequence: DANQVHSTTR, peptide start residue: 443) (UniProt Q7Z5L9)”: the log2 fold change was determined as 0.0945.

As for “UniProt Q7Z434 (peptide sequence: AGMVPSKVPTSMVLTK, peptide start residue: 356)”, the log2 fold change is -0.0811.

As to “MED25 (peptide sequence: LLAWSGVLEWQEKPKPASVDANTK, peptide start residue: 399) (UniProt Q71SY5)”, the log2 fold change was -0.171.

As for “PIWIL4 (peptide sequence: IQASPLPR, peptide start residue: 24) (UniProt Q7Z3Z4)”, the log2 fold change is -0.272.

As for “MRPL10 (peptide sequence: EIAAVFQDNR, peptide start residue: 85) (UniProt Q7Z7H8)”, the log2 fold change is -0.217.

Regarding “CENPQ (peptide sequence: KMEDLTNVSSLLNMER, peptide start residue: 130) (UniProt Q7L2Z9)”, the log2 fold change is -0.122.

For the target “PEX26 (peptide sequence: RLDVLQAIHTAR, peptide start residue: 192) (UniProt Q7Z412)”, the log2 fold change was -0.0189.

Consider “UniProt Q7Z624 (peptide sequence: EVLLTDGNEK, peptide start residue: 173)”, for which the log2 fold change was determined as 0.369.

In the case of “CPEB2 (peptide sequence: EFHKPLVK, peptide start residue: 708) (UniProt Q7Z5Q1)”, the log2 fold change was -0.124.

Turning to “UniProt Q86SX3 (peptide sequence: AGGCGRGPEWSAAR, peptide start residue: 387)”, the log2 fold change was -0.354.

As to “UniProt Q86U38 (peptide sequence: EAPETGEER, peptide start residue: 74)”, the log2 fold change is -0.291.

On to “CBLL1 (peptide sequence: HVFCYDCAILHEK, peptide start residue: 127) (UniProt Q75N03)”, for which the log2 fold change came to 0.412.
